Experiment: HS-SPME-GC-olfactory analysis of irone isomers
Settings: HS-SPME-GCO

| SMILES | olfactory property (aroma detected) |
| --- | --- |
| CC(=O)/C=C/[C@@H]1C(C)=CC[C@@H](C)C1(C)C (relative stereo) [trans-α-irone] | does not have any olfactory properties |
| CC(=O)/C=C/[C@@H]1C(C)=CC[C@H](C)C1(C)C (relative stereo) [cis-α-irone] | has olfactory properties |

Reference: US20240240209A1, “SYNTHESIS OF ENANTIOPURE CIS-A-IRONE FROM A RENEWABLE CARBON SOURCE” (Agency for Science, Technology and Research, priority 2021, published 2024)
